Our source for the binding values is patent publication US20080249606A1.

The chains behind the UniProt entries cited, without tags or fusion partners. Residues count along the entry.
UniProt P01012, residues 2-386: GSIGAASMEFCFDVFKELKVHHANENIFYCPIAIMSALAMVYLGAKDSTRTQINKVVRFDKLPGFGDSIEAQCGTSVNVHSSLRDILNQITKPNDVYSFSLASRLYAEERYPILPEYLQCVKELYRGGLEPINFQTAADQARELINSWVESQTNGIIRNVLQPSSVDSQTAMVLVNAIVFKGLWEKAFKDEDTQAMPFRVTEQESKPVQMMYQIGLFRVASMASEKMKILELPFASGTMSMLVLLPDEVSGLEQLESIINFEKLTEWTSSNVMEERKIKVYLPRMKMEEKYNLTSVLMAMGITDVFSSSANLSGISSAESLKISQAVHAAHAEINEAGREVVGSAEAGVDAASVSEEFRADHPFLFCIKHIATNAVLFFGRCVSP
UniProt P02769, residues 25-607: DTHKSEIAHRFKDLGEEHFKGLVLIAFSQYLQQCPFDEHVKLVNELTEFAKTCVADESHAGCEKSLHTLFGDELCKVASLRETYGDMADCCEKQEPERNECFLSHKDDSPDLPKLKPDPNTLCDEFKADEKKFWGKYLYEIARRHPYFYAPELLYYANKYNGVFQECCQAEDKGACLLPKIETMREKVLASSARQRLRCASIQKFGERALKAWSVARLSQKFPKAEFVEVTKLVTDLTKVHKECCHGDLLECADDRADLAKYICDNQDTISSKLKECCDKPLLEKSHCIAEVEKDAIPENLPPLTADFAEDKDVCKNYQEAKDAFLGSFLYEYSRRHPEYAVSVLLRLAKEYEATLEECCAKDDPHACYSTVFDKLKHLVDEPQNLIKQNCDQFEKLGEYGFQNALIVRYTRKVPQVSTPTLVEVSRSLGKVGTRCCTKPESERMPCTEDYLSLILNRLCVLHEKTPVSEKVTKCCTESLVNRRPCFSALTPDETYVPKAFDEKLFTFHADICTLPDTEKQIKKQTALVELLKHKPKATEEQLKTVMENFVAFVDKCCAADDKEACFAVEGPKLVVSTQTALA
UniProt P00750, residues 36-562: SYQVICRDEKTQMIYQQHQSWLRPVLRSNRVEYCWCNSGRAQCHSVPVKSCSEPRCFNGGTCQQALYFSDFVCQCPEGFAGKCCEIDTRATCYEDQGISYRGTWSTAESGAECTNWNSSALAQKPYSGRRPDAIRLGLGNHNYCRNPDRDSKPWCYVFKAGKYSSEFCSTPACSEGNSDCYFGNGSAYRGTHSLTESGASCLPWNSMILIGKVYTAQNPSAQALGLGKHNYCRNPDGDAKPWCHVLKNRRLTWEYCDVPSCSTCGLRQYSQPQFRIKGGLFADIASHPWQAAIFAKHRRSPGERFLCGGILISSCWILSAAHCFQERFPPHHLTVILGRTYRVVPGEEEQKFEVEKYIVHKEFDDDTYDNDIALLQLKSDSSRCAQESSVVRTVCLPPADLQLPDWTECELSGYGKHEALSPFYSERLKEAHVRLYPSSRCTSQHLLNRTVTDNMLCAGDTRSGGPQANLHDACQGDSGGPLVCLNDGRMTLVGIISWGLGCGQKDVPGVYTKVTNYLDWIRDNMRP

In test [1] the target is ovalbumin (OVA, A-7641, Sigma-Aldrich) (UniProt P01012). Put plainly: ELISA, OVA coated on Nunc Immobilizer Amino, Greiner Microlon and Costar 2595 plates, tPA in 10 mM εACA, detection with antibody 374b.
The target in test [2] is Bovine serum albumin (BSA) (bovine) (UniProt P02769). Put plainly: ELISA, BSA coated on Nunc Immobilizer Amino, Greiner Microlon and Costar 2595 plates, tPA in 10 mM εACA, detection with antibody 374b.

No constants are given. Whether binding was seen depends on the method and setting. Some binding calls cover weakened binding; strength is not graded here.

Consider “tissue-type plasminogen activator (tPA, Actilyse, Boehringer-Ingelheim) (from UniProt P00750 36-562) (enzyme)”, for which the binding entry in test [1] and in test [2] was “binds” in each case.
